Source: paper PMC9701222, “Molecular basis for DNA recognition by the maternal pioneer transcription factor FoxH1”
Construct, isoform or probe ends are uncertain for at least one entry. The direction of at least one scale is not stated here. Tags and fusion partners may be left off the protein sequences shown.

Key:
[1] = target: T1, dFoxH1 FH (Danio rerio) (UniProt Q9I9E1); test: DSF; conditions: Tm 40.7 free, recombinant protein, residues 86-210, protein details: His-SUMO removed (Ulp1)
T1 sequence (looked up): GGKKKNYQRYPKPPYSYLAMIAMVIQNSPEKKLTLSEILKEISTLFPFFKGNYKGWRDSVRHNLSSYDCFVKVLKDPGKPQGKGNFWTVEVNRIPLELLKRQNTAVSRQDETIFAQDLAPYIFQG

[2] = target: T2, hFoxA2 FH (Homo sapiens) (UniProt Q9Y261); test: DSF; conditions: Tm 46.6 free, recombinant protein, residues 153-273, protein details: His-SUMO removed (Ulp1)
T2 sequence (looked up): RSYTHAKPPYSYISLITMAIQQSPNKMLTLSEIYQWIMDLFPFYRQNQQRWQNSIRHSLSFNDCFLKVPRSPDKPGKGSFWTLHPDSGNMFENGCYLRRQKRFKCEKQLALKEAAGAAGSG

AGATTGTTTACTGAGA (double strand) [FKH-TTACT-GSCflank]
binding signal ([1]; 57.4 bound): 16.7 C (delta Tm) | binding signal ([2]; 56.4 bound): 9.8 C (delta Tm)

AGATTGTGTATTGAGA (double strand) [dGSC-GT-16a]
binding signal ([1]; 61.1 bound): 20.4 C (delta Tm) | binding signal ([2]; 50.8 bound): 4.2 C (delta Tm)

AGATTGTTTATTGAGA (double strand) [dGSC-TT-16a]
binding signal ([1]; 59.9 bound): 19.2 C (delta Tm) | binding signal ([2]; 54.4 bound): 7.8 C (delta Tm)
